Experimental data taken from paper doi:10.1101/2020.02.15.944892.
Read-outs that look alike come from different tables or passages of the source. These are yes or no findings as the source states them, for the method shown. Binding seen in cells or lysates may run through a third protein. Some entries that bind do so weakly or less than the wild type. For some of these results: Sequences can lack the tags named with a protein.

By UniProt entry, the sequences of proteins in these tests, tags left out. Where a name states a change or a piece, a line headed by the entry shows the natural chain unless it says otherwise.
UniProt P06730, whole entry: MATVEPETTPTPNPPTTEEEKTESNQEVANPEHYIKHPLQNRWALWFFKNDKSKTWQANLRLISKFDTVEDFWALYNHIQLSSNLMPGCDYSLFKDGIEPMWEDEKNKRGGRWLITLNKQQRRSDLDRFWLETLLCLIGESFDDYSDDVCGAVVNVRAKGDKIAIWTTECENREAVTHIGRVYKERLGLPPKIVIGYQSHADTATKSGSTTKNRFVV
UniProt P23443, whole entry: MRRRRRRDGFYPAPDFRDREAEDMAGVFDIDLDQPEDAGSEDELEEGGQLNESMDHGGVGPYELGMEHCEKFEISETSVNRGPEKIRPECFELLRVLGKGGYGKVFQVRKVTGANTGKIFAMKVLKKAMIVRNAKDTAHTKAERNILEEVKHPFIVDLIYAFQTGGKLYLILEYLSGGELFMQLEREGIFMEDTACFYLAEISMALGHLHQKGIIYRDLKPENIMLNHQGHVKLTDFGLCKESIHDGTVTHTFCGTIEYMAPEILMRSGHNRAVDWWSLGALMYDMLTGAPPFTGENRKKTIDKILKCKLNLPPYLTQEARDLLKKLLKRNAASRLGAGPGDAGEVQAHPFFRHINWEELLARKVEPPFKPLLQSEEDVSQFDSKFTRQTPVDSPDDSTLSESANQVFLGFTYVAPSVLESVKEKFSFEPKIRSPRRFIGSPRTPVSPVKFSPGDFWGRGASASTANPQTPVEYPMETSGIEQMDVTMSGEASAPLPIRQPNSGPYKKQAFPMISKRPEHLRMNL
UniProt O60346, whole entry: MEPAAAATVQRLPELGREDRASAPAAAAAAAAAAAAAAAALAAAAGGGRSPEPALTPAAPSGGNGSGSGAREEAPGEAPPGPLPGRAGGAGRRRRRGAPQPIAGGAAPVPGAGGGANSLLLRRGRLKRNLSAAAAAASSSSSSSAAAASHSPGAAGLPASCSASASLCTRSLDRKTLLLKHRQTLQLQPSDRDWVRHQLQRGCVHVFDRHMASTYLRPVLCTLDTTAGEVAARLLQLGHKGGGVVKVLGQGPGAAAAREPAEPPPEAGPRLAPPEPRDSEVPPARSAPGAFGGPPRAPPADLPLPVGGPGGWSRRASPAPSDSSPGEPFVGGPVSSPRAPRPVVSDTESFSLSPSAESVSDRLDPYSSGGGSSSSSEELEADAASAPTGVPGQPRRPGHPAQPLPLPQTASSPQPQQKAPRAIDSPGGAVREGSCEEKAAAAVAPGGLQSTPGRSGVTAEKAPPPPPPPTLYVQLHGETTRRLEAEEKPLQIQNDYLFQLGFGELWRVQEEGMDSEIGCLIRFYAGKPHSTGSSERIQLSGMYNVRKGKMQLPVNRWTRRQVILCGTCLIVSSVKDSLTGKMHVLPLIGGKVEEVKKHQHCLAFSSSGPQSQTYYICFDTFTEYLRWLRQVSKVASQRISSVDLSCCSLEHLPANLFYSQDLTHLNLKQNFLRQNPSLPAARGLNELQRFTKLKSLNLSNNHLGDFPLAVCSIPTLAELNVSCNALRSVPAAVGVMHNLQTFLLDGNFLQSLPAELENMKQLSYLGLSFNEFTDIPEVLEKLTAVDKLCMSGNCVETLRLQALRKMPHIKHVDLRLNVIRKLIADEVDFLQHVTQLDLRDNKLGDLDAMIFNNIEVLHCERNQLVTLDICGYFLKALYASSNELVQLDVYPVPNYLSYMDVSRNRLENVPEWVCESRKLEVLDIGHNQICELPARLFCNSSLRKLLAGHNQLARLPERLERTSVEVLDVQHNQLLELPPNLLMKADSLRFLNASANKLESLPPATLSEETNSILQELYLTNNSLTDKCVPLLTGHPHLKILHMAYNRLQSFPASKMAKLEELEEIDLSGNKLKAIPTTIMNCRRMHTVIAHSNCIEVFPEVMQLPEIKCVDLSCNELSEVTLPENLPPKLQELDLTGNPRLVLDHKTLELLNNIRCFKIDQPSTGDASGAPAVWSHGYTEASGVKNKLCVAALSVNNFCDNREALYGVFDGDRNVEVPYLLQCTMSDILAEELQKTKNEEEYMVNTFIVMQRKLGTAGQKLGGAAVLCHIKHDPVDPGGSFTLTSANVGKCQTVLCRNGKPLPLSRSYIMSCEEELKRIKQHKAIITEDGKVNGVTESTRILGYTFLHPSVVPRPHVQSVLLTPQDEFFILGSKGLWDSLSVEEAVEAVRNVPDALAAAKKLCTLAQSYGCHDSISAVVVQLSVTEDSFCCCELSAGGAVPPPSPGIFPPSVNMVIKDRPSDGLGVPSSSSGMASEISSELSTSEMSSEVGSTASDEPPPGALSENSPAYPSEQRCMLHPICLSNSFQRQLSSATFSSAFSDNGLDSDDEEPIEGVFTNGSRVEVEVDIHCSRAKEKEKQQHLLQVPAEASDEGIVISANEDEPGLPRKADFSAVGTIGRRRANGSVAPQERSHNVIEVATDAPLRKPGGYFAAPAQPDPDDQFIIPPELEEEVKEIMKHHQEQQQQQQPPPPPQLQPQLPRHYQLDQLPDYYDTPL

Experiments:
myc-eIF4E (wild type) [1] = biological target: myc-eIF4E (wild type) (UniProt P06730); assay: co-IP
myc-eIF4E S209E = myc-eIF4E S209E (UniProt P06730); assay: co-IP
HA-S6K1 F16A = HA-S6K1 F16A (UniProt P23443); assay: co-IP
HA-S6K1 F28A = HA-S6K1 F28A (UniProt P23443); assay: co-IP
[2] = biological target: HA-tagged S6K1 (αI variant), wild type (UniProt P23443); assay: co-IP
[3] = biological target: T1, GST tagged S6K1 fragment (78-85) (UniProt P23443); assay: pull-down
T1 sequence: SVNRGPEK

[4] = biological target: Flag-S6K1 (stably expressed in HEK293) (UniProt P23443); assay: co-IP
HA-S6K1 T412A = HA-S6K1 T412A (UniProt P23443); assay: co-IP
HA-S6K1 T412E = HA-S6K1 T412E (UniProt P23443); assay: co-IP
eIF4E 30-217(S209A) = eIF4E 30-217(S209A) (UniProt P06730); assay: co-IP
eIF4E 30-217(S209E) = eIF4E 30-217(S209E) (UniProt P06730); assay: co-IP
[5] = biological target: eIF4E truncation mutant (30-217) (UniProt P06730); assay: co-IP
myc-eIF4E (wild type) [6] = biological target: myc-eIF4E (wild type) (UniProt P06730); assay: co-IP; remark: listed apart in the source
myc-eIF4E (wild type) [7] = biological target: myc-eIF4E (wild type) (UniProt P06730); assay: co-IP; remark: listed apart in the source

For “endogenous S6K1 (from UniProt P23443 1-525) (enzyme)”, the binding (myc-eIF4E (wild type) [1]) was “binds” and the binding (myc-eIF4E S209E) was “binds”.

For “endogenous eIF4E (from UniProt P06730 1-217)”, the binding (HA-S6K1 F16A) was “binds”, the binding (HA-S6K1 F28A) was “no binding” and the binding [2] was “binds”.

With “HA-PHLPP1 (from UniProt O60346 1-1717) (enzyme)” the binding [3] was “binds” and the binding [4] was “binds”.

In the case of “myc-eIF4E (wild type) (from UniProt P06730 1-217)”, the binding (HA-S6K1 T412A) is reported as “binds”, the binding (HA-S6K1 T412E) is reported as “binds” and the binding [2] is reported as “binds”.

For “Flag-S6K1 (stably expressed in HEK293) (from UniProt P23443 1-525) (enzyme)”, the binding (eIF4E 30-217(S209A)) was “no binding”, the binding (eIF4E 30-217(S209E)) was “binds” and the binding [5] was “no binding”. For the same molecule, the binding (myc-eIF4E (wild type) [6]) was “binds” and the binding (myc-eIF4E (wild type) [1]) was “binds”.

With FDIDL [intact TOS motif bearing peptide (FDIDL)] the binding (myc-eIF4E (wild type) [7]) was “binds”.
